Tests used:
Format in all cases: cell-based
[1] = system: human multiple myeloma cell line RPMI 8226; test: Cell level anti-tumor activity test, CCK-8, multiple myeloma cells; settings: 72 h, read-out: IC50 (growth inhibition, RPMI 8226)
Experimental: The antitumor activity test of the example compounds was carried out, and the in vitro antitumor activities of the compounds were evaluated by measuring the growth inhibitory activities of the compounds against human multiple myeloma cell line 8266.
The RPMI 8226 cell line was obtained from Professor Hou Jian of Shanghai Changzheng Hospital, cultivated under culture conditions: RPMI-1640+10% FBS, routinely cultured in a saturated humidity incubator (Forma Scientific, Inc.) containing 5% CO2 at 37° C. […]
CCK-8 staining method: after the drug was applied, 10 μL of CCK-8 solution was added to each well, and incubated at 37° C. for 3 h. The OD value at 450 nm and 690 nm was measured by microplate reader.
The inhibition rate (% Inhibiton) and activity (% Activity) of the test substance on the proliferation of multiple myeloma cells were calculated according to the following formula, wherein ODsample refers to the absorbance value of the administration hole (OD450-OD690). OD DMSO refers to the absorbance of the DMSO control well (OD450-OD690).
The logarithm of the concentration was plotted against the activity percentage (% Activity), and the fitted curve was calculated by nonlinear regression. The value of IC50 was calculated by using the GraphPad Prism5 software log(inhibitor) vs response—Variable slope parameter setting. […]

Liver cancer BEL-7402 = test: Tumor cell proliferation inhibition, SRB; settings: Homo sapiens, Bel-7402, 72 h, read-out: IC50 (mean ± SD) Liver cancer BEL-7402
Lung Cancer NCI-H1975 = test: Tumor cell proliferation inhibition, SRB; settings: Homo sapiens, NCI-H1975, 72 h, read-out: IC50 (mean ± SD) Lung Cancer NCI-H1975
Breast Cancer MCF-7 = test: Tumor cell proliferation inhibition, SRB; settings: Homo sapiens, MCF7, 72 h, read-out: IC50 (mean ± SD) Breast Cancer MCF-7
Breast Cancer MDA-MB-231 = test: Tumor cell proliferation inhibition, SRB; settings: Homo sapiens, MDA-MB-231, 72 h, read-out: IC50 (mean ± SD) Breast Cancer MDA-MB-231
Breast Cancer T47D = test: Tumor cell proliferation inhibition, SRB; settings: Homo sapiens, 72 h, read-out: IC50 (mean ± SD) Breast Cancer T47D
Stomach cancer NCI-N87 = test: Tumor cell proliferation inhibition, SRB; settings: Homo sapiens, NCI-N87, 72 h, read-out: IC50 (mean ± SD) Stomach cancer NCI-N87
Liver cancer BEL-7404 = test: Tumor cell proliferation inhibition, SRB; settings: Homo sapiens, 72 h, read-out: IC50 (mean ± SD) Liver cancer BEL-7404
Experimental: (§1) The antitumor activity test of the example compounds was carried out, and the in vitro antitumor activities of the compounds were evaluated by measuring the growth inhibitory activities of the compounds against a plurality of human tumor cell lines.
(§2) Tumor cells (except MDA-MB-231) were routinely cultured under 37° C., 5% CO2.
(§3) According to the cell growth rate, the tumor cells in the logarithmic growth phase were inoculated into 96-well culture plates at 90 μL/well, and adherently grown for 24 h and then added with 10 μL/well, and each concentration was set to three replicate wells, and DMSO vehicle controls and cell-free wells at corresponding concentration were also set. Tumor cells (except MDA-MB-231) were cultured for 72 h under conditions of 37° C. and 5% CO2 (MDA-MB-231 cells were cultured at 37° C. without CO2). […] The OD value at 450 nm was measured by a microplate reader. […] After dried by convert placing in an oven, 150 μL of 10 mM Tris solution was added into each well, and the OD value at 560 nm was measured by a microplate reader.
(§4) The inhibition rate of tumor cell proliferation was calculated according to the following formula. The half-inhibition amount IC50 value was calculated by Log it method. […]

stomach cancer MKN-74 = test: Tumor cell proliferation inhibition, SRB; settings: Homo sapiens, 72 h, read-out: IC50 (mean ± SD) stomach cancer MKN-74
Experimental: as §1, §2, §3, §4

colon cancer HT-29 = test: Tumor cell proliferation inhibition, SRB; settings: Homo sapiens, HT-29, 72 h, read-out: IC50 (mean ± SD) colon cancer HT-29
[2] = system: Embryonic lung cells MRC-5; test: Cell proliferation inhibition, SRB; settings: Homo sapiens, MRC5, 72 h, read-out: IC50 (mean ± SD) Embryonic lung cells MRC-5
Experimental: as §1, §2, §3, §4

lymphoma Ramos = test: Tumor cell proliferation inhibition, CCK-8; settings: Homo sapiens, 72 h, read-out: IC50 (mean ± SD) lymphoma Ramos
[3] = system: Acute lymphoblastic leukemia MOLT-4; test: Tumor cell proliferation inhibition, CCK-8; settings: Homo sapiens, 72 h, read-out: IC50 (mean ± SD) Acute lymphoblastic leukemia MOLT-4
Experimental: as §1, §2
(§5) According to the cell growth rate, the tumor cells in the logarithmic growth phase were inoculated into 96-well culture plates at 90 μL/well, and adherently grown for 24 h and then added with 10 μL/well, and each concentration was set to three replicate wells, and DMSO vehicle controls and cell-free wells at corresponding concentration were also set. Tumor cells (except MDA-MB-231) were cultured for 72 h under conditions of 37° C. and 5% CO2 (MDA-MB-231 cells were cultured at 37° C. without CO2). After the drug was applied, 10 μL of CCK-8 solution was added to each well in Ramos, HL-60, Molt-4, Raji, CCRF-CEM, and SU-DHL-6 tumor cell line experiments, and incubated at 37° C. for 2 h. The OD value at 450 nm was measured by a microplate reader. In the BEL-7402, BEL-7404, A549, NCI-H1975, EBC-1, MCF-7, MDA-MB-231, T47D, NCI-N87, MKN-74, HT-29 and MRC-5 tumor cell line experiments, the cell culture solution in the culture plate was discarded, and 10% (w/v) trichloroacetic acid (100 pt/well) was added and fixed at 4° C. for 1 h, and then rinsed with distilled water for five times. After dried by convert placing in an oven, the plate was taken out and 100 μL of SRB solution (4 mg/mL SRB powder dissolved in 1% glacial acetic acid) was added into each well. After standed at room temperature for 15 minutes, it was washed five times with 1% glacial acetic acid to completely remove the SRB which has not bounded to the plate protein. After dried by convert placing in an oven, 150 μL of 10 mM Tris solution was added into each well, and the OD value at 560 nm was measured by a microplate reader.
(§6) The inhibition rate of tumor cell proliferation was calculated according to the following formula. The half-inhibition amount IC50 value was calculated by Log it method. Inhibition rate=(control group OD value−administration group OD value)/control group OD value×100%. Each set of experiments was repeated three times independently, while 3 replicate wells per concentration.

[4] = system: Acute lymphocytic leukemia T lymphocyte CCRF; test: Tumor cell proliferation inhibition, CCK-8; settings: Homo sapiens, 72 h, read-out: IC50 (mean ± SD) Acute lymphocytic leukemia T lymphocyte CCRF
Experimental: as §1, §2, §5, §6

[5] = system: Human blood lymphoma Raji; test: Tumor cell proliferation inhibition, CCK-8; settings: 72 h, read-out: IC50 (mean ± SD) Human blood lymphoma Raji
Experimental: as §1, §2, §5, §6

promyeloid leukemia HL60 = test: Tumor cell proliferation inhibition, CCK-8; settings: Homo sapiens, HL-60, 72 h, read-out: IC50 (mean ± SD) promyeloid leukemia HL60
Experimental: as §1, §2, §5, §6

lymphoma SU-DHL-6 = test: Tumor cell proliferation inhibition, CCK-8; settings: Homo sapiens, SU-DHL-6, 72 h, read-out: IC50 (mean ± SD) lymphoma SU-DHL-6

Work on `O=C(CCCCCCC(=O)Nc1ccccc1)NO` [SAHA, vorinostat] yielded an IC50 [1] of 1 ± 0.35 µM, an IC50 (Liver cancer BEL-7402) of 2.78 ± 0.0932 µM and an IC50 (Lung Cancer NCI-H1975) of 1.99 ± 0.302 µM. It also gave an IC50 (Breast Cancer MCF-7) of 0.883 ± 0.0699 µM, an IC50 (Breast Cancer MDA-MB-231) of 3.12 ± 0.434 µM and an IC50 (Breast Cancer T47D) of 0.962 ± 0.112 µM. The IC50 (Stomach cancer NCI-N87) was 1.08 ± 0.0862 µM, the IC50 (Liver cancer BEL-7404) was 2.81 ± 0.187 µM and the IC50 (stomach cancer MKN-74) was 3.02 ± 0.253 µM. For the same compound, the IC50 (colon cancer HT-29) was 1.33 ± 0.0202 µM, the IC50 [2] was 5.1 ± 0.829 µM and the IC50 (lymphoma Ramos) was 1.62 ± 0.0356 µM. It also gave an IC50 [3] of 1.21 ± 0.0331 µM, an IC50 [4] of 1.53 ± 0.171 µM and an IC50 [5] of 1.01 ± 0.0379 µM. The IC50 (promyeloid leukemia HL60) was 1.12 ± 0.0709 µM and the IC50 (lymphoma SU-DHL-6) was 0.787 ± 0.0237 µM.

Source: patent US10766889B2, “Aryl-2,2′-tandem bisthiazole compound and preparation method and use thereof” (SHANGHAI INSTITUTE OF MATERIA MEDICA, CHINESE ACADEMY OF …, priority 2016, dated 2020)
